Assay results reported in patent US20160009812A1 (University of Texas, published 2016).
No constants are given. Whether binding was seen depends on the method and setting. Some entries that bind do so weakly or less than the wild type.

Protein sequences, listed by entry. Tags and fused reporters are not part of them. Residues count along the entry.
UniProt P08670, residues 2-466: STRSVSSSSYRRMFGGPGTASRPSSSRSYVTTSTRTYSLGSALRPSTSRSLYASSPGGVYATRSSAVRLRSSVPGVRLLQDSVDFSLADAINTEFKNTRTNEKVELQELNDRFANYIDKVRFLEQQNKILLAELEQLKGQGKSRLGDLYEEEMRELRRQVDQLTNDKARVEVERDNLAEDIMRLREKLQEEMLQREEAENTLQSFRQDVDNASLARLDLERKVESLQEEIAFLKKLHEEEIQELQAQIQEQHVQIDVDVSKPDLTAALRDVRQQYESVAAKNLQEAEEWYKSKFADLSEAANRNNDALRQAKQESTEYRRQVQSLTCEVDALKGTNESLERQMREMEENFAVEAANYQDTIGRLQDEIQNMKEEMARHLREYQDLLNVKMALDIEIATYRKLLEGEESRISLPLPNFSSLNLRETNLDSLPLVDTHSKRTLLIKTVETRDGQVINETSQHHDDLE

Assays:
[1] = target: Recombinant human vimentin (rhVim) with 6-His (R&D Systems) (human) (UniProt P08670); experiment: western blot, 10, 100 and 1000 ng rhVim
[2] = target: Recombinant human vimentin (rhVim) with 6-His (R&D Systems) (human) (UniProt P08670); experiment: western blot of rhVim

binding [1]: binds
binding [2]: binds
B1: 84-1 monoclonal antibody (antibody, V domains shown)
VH: QVQLKQSGPGLVQPSQSLSITCTVSGFSLTRYGVHWVRQSPGKGLEWLGVIWSGGSTDYNAAFISRLSFSKDNSKSQVFFKMNSLQANDTAIYYCARRSYYYAMDYWGQGTSVTVS
VL: DVLMTQTPLSLPVSLGDQASISCRSSQSIVHRIGNTYLEWYLQKPGQSPKLLIYKVSNRFSGVPDRFSGSGSGTDFTLKISRVEAEDLGVYYCFQGSHVPLTFGAGTKLEL
notes: Mouse monoclonal antibody from hybridoma 84-1, raised against rhVim with 6-His; It was detected with anti-mouse IgG; also called 84-1 mAb; 84-1 antibody
